For this experiment, the system named is BDF1 mice, P388 leukemia ip, median survival T/C. In words: NCI In Vivo Anticancer Drug Screen. Data for tumor model P388 Leukemia (intraperitoneal) in B6D2F1 (BDF1) mice. As to conditions: T/C endpoint: median survival time, higher T/C = longer survival. Put shortly: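 Steps: implant the tumour, treat one group with compound and another with vehicle, record survival, then divide treated by control.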

The mark [1] stands for this setting: dose: 100.0 mg/kg/injection, schedule: Q01DX009 (ip), vehicle: saline.
The mark [2] stands for this setting: dose: 400.0 mg/kg/injection, schedule: Q01DX009 (ip), vehicle: saline with Tween-80.

This note sets out measurements from PubChem BioAssay AID328 (DTP/NCI, 2004).

The list shows only some results of the screen, not a fair sample: it is rich in T/C values a quarter to a half above the control, in often repeated tests (any T/C) and in doses without a T/C. Further doses and runs are listed elsewhere. T/C gives the treated animals as a percentage of the vehicle group. Some entries give survivors of the animals treated and no T/C: the source files T/C as zero there, which appears to mark a toxic dose or a test without result, not a measured value. Some doses without a T/C left all or most animals alive at the check, yet need not have been tolerated: survival well below the control is almost never listed, so the zero probably covers shortened survival too. Survivors were counted at the toxicity check, usually on the fifth day, unless a day is given; later deaths do not show. Schedule codes are those of the source, taken here to give the interval after Q, in days (D) or hours (H), and the number of doses after X. Some doses were run more than once; the values are given in rising order. For survival time, this PubChem deposit counts one and a half times the control or more as active, and values a quarter to a half above the control carry no call in these data; other NCI protocols may use other cut-offs. Some T/C values carry the count of animals alive at the toxicity check (mostly the fifth day); where none is given, no animal had died by that day.

Regarding `CC(=O)Nc1ccc(N=Nc2c(C)nn(C(=N)N)c2C)cc1`, the survivor count under setting [1] was 6 of 6.
`COc1cccc2c1C(=O)c1c(O)c3c(c(O)c1C2=O)CC(O)(C(=O)CO)CC3OC1CC(N)C(O)C(C)O1` (stereo not given): for the setting “dose: 8.0 mg/kg/injection, schedule: Q01DX004 (ip), vehicle: water”, the survivor count is listed as 8 of 8.
For the compound `C=C1C(=O)[C@]23C[C@H]1CC[C@H]2[C@@]12CO[C@@H](O)[C@@H]1C(C)(C)[C@@H](O)C[C@@H]2OC3=O`, the T/C is, setting by setting: (dose: 6.25 mg/kg/injection, schedule: Q01DX009 (ip), vehicle: saline with Tween-80) 135 % of control; (dose: 12.5 mg/kg/injection, schedule: Q01DX009 (ip), vehicle: saline with Tween-80) 125 and 132 % of control; (dose: 25.0 mg/kg/injection, schedule: Q01DX009 (ip), vehicle: saline with Tween-80) 131 [5 of 6 alive] and 137 % of control.
`COc1cccc2c1C(=O)c1c(O)c3c(c(O)c1C2=O)C[C@@](O)(C(O)O)C[C@@H]3OC1CC(N)C(O)C(C)O1` (stereo not given in full): the survivor count is, setting by setting: (dose: 32.0 mg/kg/injection, schedule: Q01DX009 (ip), vehicle: water) 3 of 3; (dose: 64.0 mg/kg/injection, schedule: Q01DX009 (ip), vehicle: water) 0 of 3.
Consider `CC1(c2cccs2)NC(=O)NC1=O` (stereo not given), for which, under setting [2], the T/C was 129 % of control.
Regarding `NC(N)=NC(N)=Nc1ccc([As](=O)(O)O)c(O)c1`, the T/C runs as follows: (dose: 66.0 mg/kg/injection, schedule: Q01DX009 (ip), vehicle: saline) 130 % of control; under setting [1], 140 % of control.
For `O=C(/C=C/c1ccc(Cl)cc1)NCC(O)CO` (stereo not given), the survivor count (dose: 800.0 mg/kg/injection, schedule: Q01DX009 (ip), vehicle: water) is reported as 4 of 6.
In the case of `COC(=O)[CH](C[N+](=O)[O-])[Hg][Cl]` (stereo not given), the survivor count is listed as 4 of 6 (dose: 6.25 mg/kg/injection, schedule: Q01DX009 (ip), vehicle: Klucel (hydroxypropylcellulose) (HPC)) and 5 of 6 (dose: 9.3 mg/kg/injection, schedule: Q04DX003 (ip), vehicle: Klucel (hydroxypropylcellulose) (HPC)).
Turning to `O=C(Nc1cccc(S(=O)(=O)F)c1)c1ccc(COc2ccc([N+](=O)[O-])cc2Cl)cc1`, the survivor count under setting [2] is on record as 5 of 6.
As to `CC[C@H](c1ccc(O)cc1)[C@@H](CC)c1ccc(O)cc1`, for the setting “dose: 200.0 mg/kg/injection, schedule: Q04DX003 (ip), vehicle: other”, the T/C is 125 % of control.
Consider `CC(CS(=O)(=O)O)N1CCOCC1` (stereo not given), for which the survivor count (dose: 400.0 mg/kg/injection, schedule: Q01DX009 (ip), vehicle: saline) is 6 of 6.
In the case of `COc1ccc2c(c1)C(Cc1ccc(Oc3ccc(CC4c5cc(OC)ccc5CC[N+]4(C)C)cc3)cc1)[N+](C)(C)CC2` (stereo not given), the survivor count was 6 of 6 (dose: 0.78 mg/kg/injection, schedule: Q04DX003 (ip), vehicle: saline with Tween-80) and 5 of 6 (dose: 1.56 mg/kg/injection, schedule: Q04DX003 (ip), vehicle: saline with Tween-80).
In the case of `Nc1ncc(C2OC(CO)C(O)C2O)c(=O)[nH]1` (stereo not given), the T/C is 132 % of control (dose: 16.0 mg/kg/injection, schedule: Q01DX005 (ip), vehicle: saline); 133 and 141 % of control (dose: 32.0 mg/kg/injection, schedule: Q01DX005 (ip), vehicle: saline); 135 and 148 % of control (dose: 64.0 mg/kg/injection, schedule: Q01DX005 (ip), vehicle: saline). The survivor count reads like this: (dose: 128.0 mg/kg/injection, schedule: Q01DX005 (ip), vehicle: saline) 5 of 6; (dose: 256.0 mg/kg/injection, schedule: Q01DX005 (ip), vehicle: saline) 2 of 6 and 5 of 6; (dose: 512.0 mg/kg/injection, schedule: Q01DX005 (ip), vehicle: saline) 0 of 6.
For the compound `COc1cc2c(c(OC)c1OC)-c1ccc(OC)c(=O)cc1[C@@H](NC(=O)CF)CC2`, the survivor count (dose: 0.37 mg/kg/injection, schedule: Q01DX009 (ip), vehicle: saline with Tween-80) is recorded as 5 of 6; the survivor count (dose: 0.75 mg/kg/injection, schedule: Q01DX009 (ip), vehicle: saline with Tween-80) was 0 of 6; the survivor count (dose: 0.75 mg/kg/injection, schedule: Q01DX009 (ip), vehicle: saline) is reported as 3 of 6; the survivor count (dose: 1.12 mg/kg/injection, schedule: Q01DX009 (ip), vehicle: saline with Tween-80) is 0 of 6; the survivor count (dose: 1.12 mg/kg/injection, schedule: Q01DX009 (ip), vehicle: saline) was 4 of 6. Further, the T/C reads like this: (dose: 11.5 micrograms/kg/injection, schedule: Q01DX009 (ip), vehicle: saline with Tween-80) 128 % of control; (dose: 23.1 micrograms/kg/injection, schedule: Q01DX009 (ip), vehicle: saline with Tween-80) 144 % of control; (dose: 92.5 micrograms/kg/injection, schedule: Q01DX009 (ip), vehicle: saline with Tween-80) 140 % of control.
In the case of `Nc1ccc(S(=O)(=O)Nc2ccc([N+](=O)[O-])cc2)cc1`, the survivor count is, setting by setting: (dose: 50.0 mg/kg/injection, schedule: Q01DX009 (ip), vehicle: saline with Tween-80) 6 of 6; (dose: 200.0 mg/kg/injection, schedule: Q01DX009 (ip), vehicle: saline with Tween-80) 5 of 6; under setting [2], 3 of 6.
